Values of other authors as cited in patent US6469022B1, “Method, compositions and kits for increasing the oral bioavailability of pharmaceutical agents” (Smith Kline Beecham, Corporation, priority 1997, dated 2002).

Structure (SMILES): CC(=O)O[C@H]1C(=O)[C@@]2(C)[C@H]([C@H](OC(=O)c3ccccc3)[C@]3(O)C[C@H](OC(=O)[C@H](O)[C@@H](NC(=O)c4ccccc4)c4ccccc4)C(C)=C1C3(C)C)[C@]1(OC(C)=O)CO[C@@H]1C[C@@H]2O [paclitaxel, 5β,20-epoxy-1,2α,4,7β,10β,13α-hexa-hydroxytax-11-en-9-one 4,10-diacetate 2-benzoate 13-ester with (2R,3S)-N-benzoyl-3-phenylisoserine]
- solubility in water: only slightly soluble
